Experimental data published in article PMC7819943, “Rice protein-binding microarrays: a tool to detect cis-acting elements near promoter regions in rice”.
This is one part of the list.

The sequences below were run against T1, OsSMF1 (Oryza sativa, UniProt Q6ZLB0 1-436) (assay: protein-binding microarray (RPBM); PBS, 2% BSA, 51.3 ng/ul salmon testes DNA, 50 uM zinc acetate, 200 nM TF, 25 C, 1 h; high values mean tight binding). Conditions: protein: recombinant; tags: N-terminal polyhistidine and DsRed monomer fusion (pET32a); chain copies: 2; label: CyDye5-dUTP incorporated in the synthesized complementary strand; 3' TTTTT single-stranded linker to array surface; dsDNA, one strand shown.
T1 sequence: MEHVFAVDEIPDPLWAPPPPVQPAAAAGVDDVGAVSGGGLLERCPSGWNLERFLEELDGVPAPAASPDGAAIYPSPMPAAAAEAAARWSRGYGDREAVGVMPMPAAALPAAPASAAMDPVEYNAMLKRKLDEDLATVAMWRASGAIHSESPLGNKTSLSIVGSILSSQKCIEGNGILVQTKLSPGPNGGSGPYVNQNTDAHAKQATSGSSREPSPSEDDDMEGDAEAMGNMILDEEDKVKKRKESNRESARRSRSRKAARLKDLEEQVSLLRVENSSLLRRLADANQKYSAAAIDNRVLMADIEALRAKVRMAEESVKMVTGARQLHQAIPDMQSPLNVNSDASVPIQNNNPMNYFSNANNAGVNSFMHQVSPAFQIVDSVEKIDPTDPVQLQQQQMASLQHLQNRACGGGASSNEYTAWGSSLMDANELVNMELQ
Outline: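 Binding signal here means per-feature fluorescence intensity in arbitrary units. The values were read on an Axon 4000B scanner after a custom Agilent array, double-stranded by primer extension with Cy5-dUTP, was incubated with 200 nM protein at 25 °C for 1 h in PBS with 2% BSA, salmon testes DNA and 50 µM zinc acetate, then washed. The proteins were transcription factors with an N-terminal polyhistidine tag and DsRed, expressed in E. coli BL21-CodonPlus and purified on Ni–NTA.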

Sequence	binding signal
ACGCACAGAGCCACGCTACTCTCCCCACCCAGATTCCACCCGGAGTCACCTAGTGCAG	3320 fluorescence intensity (a.u.)
GGTCCATCCCAGCCGTCGGATCCCCAGGCGGTGGCAGGGGCGGAGTCACCTAGTGCAG	19400 fluorescence intensity (a.u.)
GGTGGGGCCCTGTAGCGAGCAAGCCAAATGGGAGAACACCCGGAGTCACCTAGTGCAG	3390 fluorescence intensity (a.u.)
GATTACATGTAGACTATTTATCTACGTGGACAAAATCTCTCGGAGTCACCTAGTGCAG	13100 fluorescence intensity (a.u.)
AAATTGGCAGCCAAACTGGTGAGAAAATAGCCTGGAATTGCGGAGTCACCTAGTGCAG	18900 fluorescence intensity (a.u.)
TGTTGCTCTGCTTGGCCCACTAATGAACTTGTATGGGCCCCGGAGTCACCTAGTGCAG	5960 fluorescence intensity (a.u.)
CAAAGGCGCCGCCTCGTGCACCAGCTCATCCATTCCCACTCGGAGTCACCTAGTGCAG	4440 fluorescence intensity (a.u.)
CAAGAACCCAACCGCCAATGATCACACGCCACGTCGCCCCCGGAGTCACCTAGTGCAG	10200 fluorescence intensity (a.u.)
CATCGCCGACGACAAGTACCCATCCTTGCCACCGTCGCCGCGGAGTCACCTAGTGCAG	3860 fluorescence intensity (a.u.)
GCACGGCTGGGCGACGGCTGGTGTGACGCTGCGGAGTTCGCGGAGTCACCTAGTGCAG	4820 fluorescence intensity (a.u.)
GGCGCGCAGGTGGGACGATGTGGCACCGCGCGCTTGCTTCCGGAGTCACCTAGTGCAG	4170 fluorescence intensity (a.u.)
ACAGCAAGGCGTGCGTGGCATCATACCCATGCGTGGTGCACGGAGTCACCTAGTGCAG	9650 fluorescence intensity (a.u.)
ACGGCCCCACCGCCGCCGCATCATCCACCGTCCGTTCCCGCGGAGTCACCTAGTGCAG	4640 fluorescence intensity (a.u.)
ACCCCTAAAGCGCAAGACATGTCATCCATGAGTCATAGTGCGGAGTCACCTAGTGCAG	13400 fluorescence intensity (a.u.)
CTGCCGCGCCATCGCGCCACGTCGCCTCGTCTTGCCTCGCCGGAGTCACCTAGTGCAG	12000 fluorescence intensity (a.u.)
TAGGCTGGCCACTGGCTGGGCCTTTGAGCTTGGTCAGCTGCGGAGTCACCTAGTGCAG	3160 fluorescence intensity (a.u.)
TTGCTTCATAGGGAATTAGGGATTGACCAAAGTCGAACTCCGGAGTCACCTAGTGCAG	3560 fluorescence intensity (a.u.)
CCTTCCGCCACGACGCCGTCGTGTGCTCCGTCGTCCAGGCCGGAGTCACCTAGTGCAG	4750 fluorescence intensity (a.u.)
AGAGGGTGGAGGAGCTGACTAGATTGCACTAGGTCTCGATCGGAGTCACCTAGTGCAG	42000 fluorescence intensity (a.u.)
CCACTGCTACGCCGGCAATGGCCGCCCGCCACTGACGTGCCGGAGTCACCTAGTGCAG	3670 fluorescence intensity (a.u.)
AAACCCCACGCCACCCACCACCTTCAACGTTAGACCCACGCGGAGTCACCTAGTGCAG	3220 fluorescence intensity (a.u.)

Sequence	binding signal
CTTAAAGGGCAGAAAAGACATACGTTTCCTTTAACCAAACCGGAGTCACCTAGTGCAG	3210 fluorescence intensity (a.u.)
GTGATAGTTTTGTTCTGCCACGCCAGCTAGAGTGGCGTGGCGGAGTCACCTAGTGCAG	7410 fluorescence intensity (a.u.)
CAAGCGCGACGTCCCAACGGGCGAAGCGCGGCAGCCGTCTCGGAGTCACCTAGTGCAG	32900 fluorescence intensity (a.u.)
GCAGCCGGACCGTCACGTTGCTTGCGCTGTTGGCTGTTGCCGGAGTCACCTAGTGCAG	3220 fluorescence intensity (a.u.)
GCCCCTAGAGTTGAGATGCAGAATGCCGTGCTAGGGTTGTCGGAGTCACCTAGTGCAG	3980 fluorescence intensity (a.u.)
CCGCGGCCACCTGGCCTACCTCGCCTCTCCCGTGGGCCCCCGGAGTCACCTAGTGCAG	3240 fluorescence intensity (a.u.)
TGACTACGGATGCAAGCGGGCCAACCCGCGGGTCTGTTTACGGAGTCACCTAGTGCAG	20300 fluorescence intensity (a.u.)
CATATAAAAGCCCGTGCAATGCACGGGCTGATGACTAGTACGGAGTCACCTAGTGCAG	3510 fluorescence intensity (a.u.)
TAGATTAGCTTATCAATGATTTGTTGCAAAATATCACACGCGGAGTCACCTAGTGCAG	21100 fluorescence intensity (a.u.)
AGGCGCTCCATAGGCCTCGTCATCTTCACAGTCACACACCCGGAGTCACCTAGTGCAG	7450 fluorescence intensity (a.u.)
CTTGGCCGTGGCCGCTGACATGGCATCACCTCATCCGCAACGGAGTCACCTAGTGCAG	4320 fluorescence intensity (a.u.)
TGCTGTTGGGTTGTGAACTAAACTTAAAGTGCATGTTTATCGGAGTCACCTAGTGCAG	3570 fluorescence intensity (a.u.)
GTAAGTTTTCCACTCATACTTACTGGTTCTACTTGATCTTCGGAGTCACCTAGTGCAG	3230 fluorescence intensity (a.u.)
AGTTATTTCCTAATTGTATTTCTATATGGACTCTAGCCTCCGGAGTCACCTAGTGCAG	23500 fluorescence intensity (a.u.)
AATTTTATCTCTGGTCTTCTATGGACCAAAAGTGACGTGGCGGAGTCACCTAGTGCAG	16700 fluorescence intensity (a.u.)
GAGAGGAGGAAGGGAGAGTAACGTGGCGTCCTGACATGTGCGGAGTCACCTAGTGCAG	6930 fluorescence intensity (a.u.)
TTACTTTCCAGTCCAATTTCCAAGCTACCACGGTATTTATCGGAGTCACCTAGTGCAG	7880 fluorescence intensity (a.u.)
TTGGGACGGAAGAAGTAGGTATTTAGGAAGCAGTACTGGGCGGAGTCACCTAGTGCAG	28800 fluorescence intensity (a.u.)
GCGAGCTACTACCACGCTAGGCTGCCATAGAGGGTAGTCGCGGAGTCACCTAGTGCAG	7190 fluorescence intensity (a.u.)
GACCCACATGGGGCCCACGCTGACTCACCCGCCACGTTAGCGGAGTCACCTAGTGCAG	19000 fluorescence intensity (a.u.)
TGCTCCAATCAATTGAGCAATAATACAGTATAGAACATTGCGGAGTCACCTAGTGCAG	3610 fluorescence intensity (a.u.)

Sequence	binding signal
TACCTAGTTCATGACATCATGAGACGAAATCGCTATCGGCCGGAGTCACCTAGTGCAG	5250 fluorescence intensity (a.u.)
GACGAGCATTCCTGCCGTTCCCGGTACACGTCGTCCCTCTCGGAGTCACCTAGTGCAG	3620 fluorescence intensity (a.u.)
GAGCGAACGGCCGTCTGCCACGTCCTATTCGCCGCCCTTTCGGAGTCACCTAGTGCAG	11900 fluorescence intensity (a.u.)
TTCCATCCGTTTCTTCGCATGTGACAGCTCATCCACACCGCGGAGTCACCTAGTGCAG	6730 fluorescence intensity (a.u.)
GGATATCCCGGTTTGCGTCCTGCCTGACTGAATATGTGTGCGGAGTCACCTAGTGCAG	5190 fluorescence intensity (a.u.)
TCTTTTGGTGGTTTCAGAAGCGGTTTTATCCTACGTGACACGGAGTCACCTAGTGCAG	4530 fluorescence intensity (a.u.)
TTTAGAGAAGGGCACTACATCCAACCGGATATATATAACCCGGAGTCACCTAGTGCAG	3310 fluorescence intensity (a.u.)
TGGAAAATGGGGAGGTGGGATTATAATTGGAAAATAAATGCGGAGTCACCTAGTGCAG	3650 fluorescence intensity (a.u.)
TTTCGTCATGTCTTCATCTTCGGTTGCTAGGTCACGCCGTCGGAGTCACCTAGTGCAG	3540 fluorescence intensity (a.u.)
GTGATCAAGCAAGCAAACAGCACAGCGTGGACTGATTACTCGGAGTCACCTAGTGCAG	3990 fluorescence intensity (a.u.)
CAACACCCCTCGACACGTCGTTCATGCTCATTCGCGTACCCGGAGTCACCTAGTGCAG	5690 fluorescence intensity (a.u.)
GCACGATGATTTTAGTGGCTTTGTTGGCGCGAGTTGGGTGCGGAGTCACCTAGTGCAG	3630 fluorescence intensity (a.u.)
CTCTCGAGCATCAGCACGTGGCGCGCACGTGGCCAGCCAACGGAGTCACCTAGTGCAG	5170 fluorescence intensity (a.u.)
CTAGCAGCTGCTTGCTGTTCGTGGTGCGTACGTGTCATGACGGAGTCACCTAGTGCAG	9420 fluorescence intensity (a.u.)
GTTCCTATTACCACTTCCCAACGAACTAACCGAAGCCCCGCGGAGTCACCTAGTGCAG	10100 fluorescence intensity (a.u.)
ATCGCCGTCCGCGCCGCGCCAGGTCGCCGCGCTGCCCCGTCGGAGTCACCTAGTGCAG	3420 fluorescence intensity (a.u.)
TCTCCTCCCTGCCTCTTGACTGTTGTCACTTGACTCTTCGCGGAGTCACCTAGTGCAG	3420 fluorescence intensity (a.u.)
TCCGCTAAGTCAATCCTACCGCCTCGCCTCATCTCCGTCACGGAGTCACCTAGTGCAG	3320 fluorescence intensity (a.u.)
CTCCATTTTCTCCGGTTTTCGCCGCAGAGTAGGAGCTGAACGGAGTCACCTAGTGCAG	21400 fluorescence intensity (a.u.)
GGGGCGGGAGCGGGAGGGCGGCGTCGGCGAGTAGGAGGTGCGGAGTCACCTAGTGCAG	4700 fluorescence intensity (a.u.)
TTTCTCCTTGCACAGCTGGTGCCACTCCTGCAGCACGGCGCGGAGTCACCTAGTGCAG	3390 fluorescence intensity (a.u.)

Sequence	binding signal
AAATTAAATTGCGTAGCAATGTGGCATGTAGGTAGTAATGCGGAGTCACCTAGTGCAG	3600 fluorescence intensity (a.u.)
TGGCTGGTTGGGAGGGGACAGCACATGATGCTGTAGTTTTCGGAGTCACCTAGTGCAG	3510 fluorescence intensity (a.u.)
TTTGATGCTCCATACATGTGTCCAAACATTTGATGTGACGCGGAGTCACCTAGTGCAG	3680 fluorescence intensity (a.u.)
TGTGCAACTCAATCAATCCAAAACACGTCCCTTGTCATTCCGGAGTCACCTAGTGCAG	4480 fluorescence intensity (a.u.)
GGCTGGTAAGTCGGAGTCGTCGGCATGACGCCGCCTTGCTCGGAGTCACCTAGTGCAG	5330 fluorescence intensity (a.u.)
TGGAACATGCATGTGATCGAGTGGCTTGATCTCTAGTTAACGGAGTCACCTAGTGCAG	12100 fluorescence intensity (a.u.)
AGTAACCTTGCTGGCGATGTCATCGGTCTACTCCTTAGCACGGAGTCACCTAGTGCAG	3380 fluorescence intensity (a.u.)
TATTTGGAACTGTGCCATTATAATTTTACACATATTTGAGCGGAGTCACCTAGTGCAG	4030 fluorescence intensity (a.u.)
ACATGTGCATCGAATCCGCATGGCTAGGAACGTAATTGTGCGGAGTCACCTAGTGCAG	34800 fluorescence intensity (a.u.)
CAAATACTACATCACACAGGTCAGCAGAAATTTCACTCTTCGGAGTCACCTAGTGCAG	4100 fluorescence intensity (a.u.)
ACAACTCAAATAATGTACACATAAAACATTTCTAGCTTTTCGGAGTCACCTAGTGCAG	3320 fluorescence intensity (a.u.)
GCCGTCCGATCGTCATCGAGAGAAGATCTGGGCCGTCCATCGGAGTCACCTAGTGCAG	3380 fluorescence intensity (a.u.)
CAACACTTAATTATTTGCAATTAATCTAATTGCATATATACGGAGTCACCTAGTGCAG	3560 fluorescence intensity (a.u.)
ACCCAATAAGTCCAGCTAACTTGCTTACATGGCCACTACACGGAGTCACCTAGTGCAG	4300 fluorescence intensity (a.u.)
ATTCCGCCTGAACCCCACACCCGGATTCCGCCGTCAGCCACGGAGTCACCTAGTGCAG	4090 fluorescence intensity (a.u.)
GAACAAAATAACTTGGGAGAGTATTTGGGCAACTTTCGGTCGGAGTCACCTAGTGCAG	18900 fluorescence intensity (a.u.)
CCCACCGATCAGACAGTGGGCCCTTCATGGGCCCACGCCACGGAGTCACCTAGTGCAG	3470 fluorescence intensity (a.u.)
GGACGAAAGTTGACACGGTTTTATGAGTTTGAAGACGGGCCGGAGTCACCTAGTGCAG	3520 fluorescence intensity (a.u.)
TAAATTGACAGGTCAGCCATTCTGGCGTGGGCTGGGCCCGCGGAGTCACCTAGTGCAG	8580 fluorescence intensity (a.u.)
TCGCTCATGAGATTGGGCATGAGTCATGAGTGGACTGGAGCGGAGTCACCTAGTGCAG	5770 fluorescence intensity (a.u.)
GTAGTACTCAAGCAAAGTCGTTAGTAGGTAAACTGCAGACCGGAGTCACCTAGTGCAG	3960 fluorescence intensity (a.u.)

A different layout for some results above:
CTCCATTTTCTCCGGTTTTCGCCGCAGAGTAGGAGCTGAACGGAGTCACCTAGTGCAG
  binding signal = 21400 fluorescence intensity (a.u.)
GGGGCGGGAGCGGGAGGGCGGCGTCGGCGAGTAGGAGGTGCGGAGTCACCTAGTGCAG
  binding signal = 4700 fluorescence intensity (a.u.)
TTTCTCCTTGCACAGCTGGTGCCACTCCTGCAGCACGGCGCGGAGTCACCTAGTGCAG
  binding signal = 3390 fluorescence intensity (a.u.)
AAATTAAATTGCGTAGCAATGTGGCATGTAGGTAGTAATGCGGAGTCACCTAGTGCAG
  binding signal = 3600 fluorescence intensity (a.u.)
